Values from PubChem BioAssay AID1159578 (Peter MacCallum Cancer Centre, 2015).

Assay: 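Knock-downs that alter how fast lymphatic endothelial cells migrate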 (primary screen)
Cell system: human lymphatic endothelial cells
Reagent: siRNA pool against human genes, 40 nM
Time to read-out: 48 h after transfection
Measured: 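Cells stained with dye and imaged after a scratch; covered wound area and nuclei counted, duplicates averaged, migration set against mock wells and turned into a robust z-score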
Reading the numbers: migration robust z-score: higher = faster migration into the scratch; nuclei per well: higher = more cells in the well
Rule for the call: 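Pools averaging fewer than 3300 nuclei are never called; remaining pools count as changed when migration robust z lies outside -2 to 2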
Meaning of the calls: active = migration changed; inactive = no migration change, or too few cells
The deposit covers about 18,000 reagents; below is a random part of them. Over the whole deposit, about 1,030 (5.7%) got an active call. 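Inactive calls also include pools with fewer than 3300 nuclei, whose migration was not assessed.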 The raw values are shown without normalisation. Entries without a mark were called inactive. Not all columns of the deposit are shown.

| gene | migration robust z-score | migration class with cell-count check | nuclei per well, duplicate mean |
| --- | --- | --- | --- |
| MC5R | -0.29 | migration z between -2 and 2; enough cells | 6934 |
| OR6K6 | 0.52 | migration z between -2 and 2; enough cells | 6845 |
| BAIAP2 | -1.09 | migration z between -2 and 2; enough cells | 4458 |
| ARL5B | -0.28 | migration z between -2 and 2; enough cells | 7634 |
| AK2 | -1.14 | migration z between -2 and 2; enough cells | 4296 |
| ULBP3 | 0.76 | migration z between -2 and 2; enough cells | 5130 |
| HS1BP3 | -0.72 | migration z between -2 and 2; enough cells | 5791 |
| OPLAH | -1.06 | migration z between -2 and 2; enough cells | 3711 |
| PRPF8 | 0.38 | migration z between -2 and 2; enough cells | 4834 |
| PPP1R3C | -0.46 | migration z between -2 and 2; enough cells | 5926 |
| SCO2 | -0.5 | migration z between -2 and 2; enough cells | 6694 |
| CEP192 | -0.68 | migration z between -2 and 2; enough cells | 5917 |
| FAM184A | -0.64 | migration z between -2 and 2; enough cells | 5652 |
| RPS17 | -1.26 | migration z between -2 and 2; enough cells | 5806 |
| TAGAP | 0.44 | migration z between -2 and 2; enough cells | 5610 |
| FAM120C | 0.5 | migration z between -2 and 2; enough cells | 6368 |
| DPH3 | -0.14 | migration z between -2 and 2; enough cells | 6358 |
| NEFL | 0.82 | migration z between -2 and 2; enough cells | 5723 |
| GMDS | 0.26 | migration z between -2 and 2; enough cells | 5107 |
| TCF23 | -0.94 | migration z between -2 and 2; enough cells | 3483 |
| LCN15 | 0.21 | migration z between -2 and 2; enough cells | 5580 |
| CRACR2A | 2.21 (active) | migration z above 2; enough cells | 6503 |
| IL7 | 0.13 | migration z between -2 and 2; enough cells | 7040 |
| CD36 | 0.31 | migration z between -2 and 2; enough cells | 4542 |
| C1QB | 0.98 | migration z between -2 and 2; enough cells | 6158 |
| SLC6A18 | 0.17 | migration z between -2 and 2; enough cells | 6372 |
| RGS12 | 0.06 | migration z between -2 and 2; enough cells | 3992 |
| SLC35A2 | -1.17 | migration z between -2 and 2; enough cells | 4575 |

Reformatted: results already given.
gene,migration robust z-score,migration class with cell-count check,"nuclei per well, duplicate mean"
DPH3,-0.14,migration z between -2 and 2; enough cells,6358
NEFL,0.82,migration z between -2 and 2; enough cells,5723
GMDS,0.26,migration z between -2 and 2; enough cells,5107
TCF23,-0.94,migration z between -2 and 2; enough cells,3483
LCN15,0.21,migration z between -2 and 2; enough cells,5580
CRACR2A,2.21 (active),migration z above 2; enough cells,6503
IL7,0.13,migration z between -2 and 2; enough cells,7040
CD36,0.31,migration z between -2 and 2; enough cells,4542
C1QB,0.98,migration z between -2 and 2; enough cells,6158

The listing continues:
| gene | migration robust z-score | migration class with cell-count check | nuclei per well, duplicate mean |
| --- | --- | --- | --- |
| CEP63 | -0.19 | migration z between -2 and 2; enough cells | 3898 |
| MED15 | 0.81 | migration z between -2 and 2; enough cells | 5190 |
| MACO1 | 0.58 | migration z between -2 and 2; enough cells | 6446 |
| HIP1R | 0.36 | migration z between -2 and 2; enough cells | 6264 |
| B4GALT5 | 0.05 | migration z between -2 and 2; enough cells | 4700 |
| ORMDL3 | -0.06 | migration z between -2 and 2; enough cells | 4719 |
| HDAC8 | 0.25 | migration z between -2 and 2; enough cells | 7334 |
| GRM6 | 1.17 | migration z between -2 and 2; enough cells | 5903 |
| SCFD2 | -0.85 | migration z between -2 and 2; enough cells | 5208 |
| HSPA9 | 1.35 | migration z between -2 and 2; enough cells | 5965 |
| PSMD10 | -3.25 | under 3300 nuclei; migration not judged | 2215 |
| L1CAM | 0 | migration z between -2 and 2; enough cells | 4782 |
| BORCS5 | 1.4 | migration z between -2 and 2; enough cells | 5792 |
| MBOAT2 | 0.12 | migration z between -2 and 2; enough cells | 6506 |
| PRR16 | 0.32 | migration z between -2 and 2; enough cells | 5927 |
| CEP112 | 0.94 | migration z between -2 and 2; enough cells | 7257 |
| ZNF75A | -1.18 | migration z between -2 and 2; enough cells | 4604 |
| MARCO | -0.98 | migration z between -2 and 2; enough cells | 7382 |
| DEFB116 | 0.06 | migration z between -2 and 2; enough cells | 4032 |
| PKDCC | -2.86 | under 3300 nuclei; migration not judged | 3004 |
| ANKRD13B | -0.66 | migration z between -2 and 2; enough cells | 3910 |
| RNF10 | 1.14 | migration z between -2 and 2; enough cells | 6564 |
| HTRA1 | -1.32 | migration z between -2 and 2; enough cells | 5360 |
| MXD4 | -2 | migration z between -2 and 2; enough cells | 4036 |
| XXYLT1 | -0.52 | migration z between -2 and 2; enough cells | 5527 |
| HLA-A | -1.79 | migration z between -2 and 2; enough cells | 5078 |
| RAB24 | 0.52 | migration z between -2 and 2; enough cells | 5876 |
| SPANXN4 | 0.22 | migration z between -2 and 2; enough cells | 6582 |
| GMPPB | -0.13 | migration z between -2 and 2; enough cells | 4936 |
